Measured values: PMC10085685
Results are given in words; binding and its absence hold for the method and conditions named. Binding seen in cells or lysates may run through a third protein. These calls come from enrichment with a bait or labelling near it, and not all partners need be listed.

Protein sequences, listed by entry. Tags and fused reporters are not part of them. Lines headed by an entry give the natural chain unless they say otherwise; changes in a name come on top.
UniProt Q9LY34: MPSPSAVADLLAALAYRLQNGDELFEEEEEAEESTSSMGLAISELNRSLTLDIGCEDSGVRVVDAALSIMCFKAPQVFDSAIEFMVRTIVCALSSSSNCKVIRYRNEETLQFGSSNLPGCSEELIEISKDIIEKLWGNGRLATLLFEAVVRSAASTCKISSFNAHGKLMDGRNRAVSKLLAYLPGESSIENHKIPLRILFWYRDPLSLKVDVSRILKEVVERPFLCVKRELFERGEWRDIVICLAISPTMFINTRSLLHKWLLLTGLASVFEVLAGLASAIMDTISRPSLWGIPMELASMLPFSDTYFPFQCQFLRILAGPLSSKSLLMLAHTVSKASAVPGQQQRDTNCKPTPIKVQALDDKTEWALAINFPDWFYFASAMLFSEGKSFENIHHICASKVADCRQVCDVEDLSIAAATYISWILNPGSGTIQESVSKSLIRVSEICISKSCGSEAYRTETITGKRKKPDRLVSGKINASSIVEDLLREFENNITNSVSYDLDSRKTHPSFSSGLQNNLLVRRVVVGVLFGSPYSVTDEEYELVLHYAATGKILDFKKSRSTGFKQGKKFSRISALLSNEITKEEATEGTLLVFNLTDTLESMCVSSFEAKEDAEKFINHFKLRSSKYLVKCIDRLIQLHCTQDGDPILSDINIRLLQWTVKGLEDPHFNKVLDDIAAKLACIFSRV

molecular target: C-terminal GSrhino-tagged FANCC (At3g60310/AtFANCC) (Arabidopsis thaliana) (UniProt Q9LY34); test: affinity purification with mass spectrometry; GSrhino-tagged FANCC overexpressed as bait in Arabidopsis cell suspension culture; pull-down, on-bead digestion, Q Exactive mass spectrometer; three replicates; filtered against a list of non-specific proteins

| binding | Binder |
| --- | --- |
| binds | FANCM (AT1G35530), co-purified from Arabidopsis cells (protein, UniProt I3XHK1 1-1344) MGSRVPIETIEEDGEFDWEAAVKEIDLACLKTTNASSSSSSHFTPLANPPITANLTKPPAKRQSTLDKFIGRTEHKPENHQVVSECGVNDNDNSPLVGIDPEAAKTWIYPVNGSVPLRDYQFAITKTALFSNTLVALPTGLGKTLIAAVVMYNYFRWFPQGKIVFAAPSRPLVMQQIEACHNIVGIPQEWTIDLTGQTCPSKRAFLWKSKRVFFVTPQVLEKDIQSGTCLTNYLVCLVIDEAHRALGNYSYCVVVRELMAVPIQLRILALTATPGSKTQAIQGIIDNLQISTLEYRNESDHDVCPYVHDRKLEVIEVPLGQDADDVSKRLFHVIRPYAVRLKNFGVNLNRDIQTLSPHEVLMARDKFRQAPLPGLPHVNHGDVESCFAALITLYHIRKLLSSHGIRPAYEMLEEKLKEGPFARLMSKNEDIRMTKLLMQQRLSHGAPSPKLSKMLEILVDHFKVKDPKTSRVIIFSNFRGSVRDIMNALSNIGDMVKATEFIGQSSGKTLKGQSQKIQQAVLEKFRAGGFNVIVATSIGEEGLDIMEVDLVICFDANVSPLRMIQRMGRTGRKNNGRVVVLACEGSEKNSYMRKQASGRAIKKHMRNGGTNSFNFHPSPRMIPHVYKPEVQHVEFSIKQFVPRGKKLQEEYATETPAFQKKLTPAETHMLAKYYNNPDEEKLRVSLIAFPHFQTLPSKVHKVMHSRQTGMLIDAMQHLQEPTFSEQSKSFFTEFRAPLGEREELDTGLRVTNDPKDLHSVRDLEVNTSQRKAKQVESPTSTLETTEKDYEESSPTHRYLFSSECASVDTLGNVFVMPVPLLFFPNVLESDNTPLPKTEKQHSCRNTSHIDLVPVDTSEKHRQDNISCKLKERFSPDGASETLETHSLVKRNSTRVGEDDVANSVGEIVLSSDEDDCEGLELSPRLTNFIKSGIVPESPVYDQGEANREEDLEFPQLSSPMRFSNELAGESSFPERKVQHKCNDYNIVSTTTELRTPQKEVGLANGTECLAVSPIPEDWRTPLANLTNTNSSARKDWRVSSGEKLETLRQPRKLKRLRRLGDCSSAVKENYPGITEADHIRSRSRGKKHIRGKKKMIMDDDVQVFIDEEAEVSSGAEMSADENEDVTGDSFEDSFIDDGTMPTANTQAESGKVDMMAVYRRSLLSQSPLPARFRDLAASSLSPYSAGPLTRINESRSDSDKSLSSLRTPKTTNSESNQDAMMIGNLSVVQISSDSRKRKFSLCNSANAPVINLESKFAAHAQATEKESHEGVRSNAGALEYNDDDDDAFFATLDFDAMEAQATLLLSKQRSEAKEKEDATVIPNPGMQRSDGMEKDAPSFDLGLW |
| binds | FANCE (AT4G29560), co-purified from Arabidopsis cells (protein, UniProt Q9SU89 1-493) MEEWIPLFDIFLKSPSPEAEASLWLDQASNLFSSSSSAAAPINRSSFVSLLKKQCDQNSSPVTKKVLFIETLPNMVQSKILSFLLFEYQRFCVSDLVWLAREMLGSGGNKVVDFWVQRDAHNLLDRIPKPKFEWISNLDLDSADEDSMKQVFDSVPDWLSEKLGSAGTILPWLPVSCDDVDSEMLVVDSWNGKEITQIKEDMEEDQREVVHNIDHTMTVGLQAHDHEMAVNLRAQISNFESTSEVLTLCNDIRRLCLEKGKDSLRVLALIEPWNADDETAAVLLSSLHNGSEEEELGWPSHVLCSIVLPKFLSLEKSASRVLMSSTIEFCKIHQRAAEYALVFPLILRKEGINNFICEVISRVLKECLHLGQISGFCQKLLCGRTQERRFMFLPCHRDLISDELTWNEYLFILFQNILIHGIPLSQDSVDCLVSKVQELAERYSKSLKFGNFLLHFTAKCAPMLQAHKYQLIESVKCTNSLVTKSILSKLNAL |
| binds | MHF2 (AT1G78790), co-purified from Arabidopsis cells (protein, UniProt Q8L7N3 1-104) MDANNTFDSDLIHAIFKHIWARRFRERERSDAIDATEAEVALGTTKKNRLASANANALKLSCELLKSFVSEAVQRAAIIAEAEGMEKIEATHLERILPQLLLDF |
